Results deposited as PubChem BioAssay AID1671195 (Yale University, 2021).

Test: 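Knockdowns that increase or decrease uptake of fluorescent LDL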 (primary screen)
Cells: human Huh7 hepatoma cells
Reagents: siRNA pool against human genes, 18 nM
Duration: about 2 to 2.5 days of knockdown, then 8 h LDL uptake
Treatment: DiI-labelled LDL at 30 µg/ml for 8 h, in lipoprotein-deficient serum medium
Detection: 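Per-cell DiI-LDL intensity by automated imaging; well means scaled to the plate median and given as a robust z-score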
Reading the numbers: robust z-score: higher = more LDL uptake after knockdown
Active means: 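Active when two or more replicates show a robust z-score above 2 or below -2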
The whole screen tested about 22,000 reagents; this is a random part of them. Over the whole deposit, about 1,510 (6.9%) were called active. 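Active includes knockdowns raising or lowering LDL uptake; positive z-scores mean more uptake, negative mean less.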 Reagents against one gene are numbered here.

target | pool no. | robust z-score, replicate 1 | robust z-score, replicate 2 | robust z-score, replicate 3 | call
BAZ1A (GeneID 11177) | 1 | -0.612 | 1.6 | -0.345 | inactive
INF2 (GeneID 64423) | 1 | 0.089 | 0.0813 | 0.199 | inactive
INF2 (GeneID 64423) | 2 | -0.74 | -0.79 | 0.434 | inactive
ALKBH6 (GeneID 84964) | 1 | -0.829 | -1.19 | -0.749 | inactive
C2orf68 (GeneID 388969) | 1 | 1.17 | 1.34 | 1.96 | inactive
NEK1 (GeneID 4750) | 1 | 0.906 | 1.5 | 0.907 | inactive
LRRC42 (GeneID 115353) | 1 | -0.519 | -0.0404 | -0.268 | inactive
SEC16B (GeneID 89866) | 1 | -1.59 | -0.686 | -1.04 | inactive
CST9L (GeneID 128821) | 1 | 3.41 | 3.46 | 3.14 | active
RDUR (GeneID 152225) | 1 | -1.2 | -1.45 | -1.18 | inactive
SLC71A1 (GeneID 64645) | 1 | -0.878 | -0.795 | -0.712 | inactive
HBE1 (GeneID 3046) | 1 | 2.96 | 0.416 | -2.38 | inactive
LOC401287 (retired record) (GeneID 401287) | 1 | -0.0389 | -0.14 | -0.0362 | inactive
SLC9A4 (GeneID 389015) | 1 | 1.89 | 1.19 | 2.41 | inactive
GCG (GeneID 2641) | 1 | -0.849 | -0.633 | -1.06 | inactive
ALDOB (GeneID 229) | 1 | -0.78 | -0.905 | -1.07 | inactive
VWF (GeneID 7450) | 1 | -0.607 | -0.215 | -0.184 | inactive
THEM4 (GeneID 117145) | 1 | -0.227 | -0.597 | 0.204 | inactive
TRIB3 (GeneID 57761) | 1 | 0.217 | -0.539 | 0.05 | inactive
VSNL1 (GeneID 7447) | 1 | 0.834 | 0.729 | 0.452 | inactive
NME1 (GeneID 4830) | 1 | 4.29 | 3.64 | 4.1 | active
RIOK2 (GeneID 55781) | 1 | 0.382 | 0.5 | 1.26 | inactive
LOC441885 (retired record) (GeneID 441885) | 1 | -0.503 | -0.37 | -0.26 | inactive
RIBC2 (GeneID 26150) | 1 | -1.54 | -0.344 | -1.16 | inactive
UGGT2 (GeneID 55757) | 1 | -0.33 | 0.107 | 0.146 | inactive
PPIAP28 (GeneID 390378) | 1 | 1.87 | 1.27 | 0.833 | inactive
LOC387859 (retired record) (GeneID 387859) | 1 | 0.0953 | -0.375 | 0.193 | inactive
CYP2C18 (GeneID 1562) | 1 | -0.0978 | 0.242 | -0.115 | inactive
GHITM (GeneID 27069) | 1 | -0.492 | 1.06 | -0.246 | inactive
OR3A4P (GeneID 390756) | 1 | 1.57 | 0.666 | 1.07 | inactive
LINC02487 (GeneID 441178) | 1 | -0.329 | -1.08 | -0.611 | inactive
CREM (GeneID 1390) | 1 | -1 | -1.21 | -1.23 | inactive
LOC440344 (retired record) (GeneID 440344) | 1 | -0.48 | -0.435 | -0.398 | inactive
PAGE5 (GeneID 90737) | 1 | -1.5 | -0.791 | -1.19 | inactive
PTCD3 (GeneID 55037) | 1 | 1.68 | 0.726 | 1.55 | inactive
BEST1 (GeneID 7439) | 1 | -0.934 | -1.34 | -0.936 | inactive
SCN2A (GeneID 6326) | 1 | -0.902 | -1.1 | -0.552 | inactive
PUS7 (GeneID 54517) | 1 | 1.06 | 0.19 | 1.05 | inactive
PTPRN (GeneID 5798) | 1 | 0.45 | 0.465 | 0.338 | inactive
ZNF18 (GeneID 7566) | 1 | 0.759 | 0.455 | 0.435 | inactive
CIROZ (GeneID 148345) | 1 | 0.157 | -0.162 | -0.368 | inactive
FNBP1L (GeneID 54874) | 1 | 1.88 | 1.38 | 3.23 | inactive
NUDT15 (GeneID 55270) | 1 | -0.0484 | 1.1 | 0.425 | inactive
RXFP4 (GeneID 339403) | 1 | -0.217 | 0.458 | 0.48 | inactive
UBC (GeneID 7316) | 1 | -1.7 | -2.15 | -2.34 | active
TMEM50B (GeneID 757) | 1 | -0.889 | -0.41 | -0.842 | inactive
